No constants are given. Whether binding was seen depends on the method and setting. Where a sequence is shown, tags or fusion partners need not be part of it.
Target: N-terminally Flag-tagged mouse NINJ1 (mouse) (UniProt O70131)
Test: condition: only co-expressed and co-purified with clone D1 Fab; negative-stain electron microscopy; Flag–NINJ1 co-expressed with clone D1 Fab, complex purified on anti-Flag M2 resin and SEC (peak at 15 ml), about 0.1 mg/ml in SEC buffer, 1% uranyl acetate; both purified

B1: N-terminally Flag-tagged mouse NINJ1 (natural protein, UniProt O70131 1-152, looked up)
chain: MESGTEEYELNGDLRPGSPGSPDALPPRWGLRNRPINVNHYANKKSAAESMLDIALLMANASQLKAVVEQGNDFAFFVPLVVLISISLVLQIGVGVLLIFLVKYDLNNPAKHAKLDFLNNLATGLVFIIVVVNIFITAFGVQKPVMDVAPRQ
notes: NINJ1 (ninjurin-1), mouse, expressed from pRK-Flag-mNINJ1; Membrane protein solubilised in 1% LMNG / 0.1% CHS; the oligomer size is heterogeneous and no copy number is told; also called Flag–NINJ1; recombinant NINJ1; source: Expi293F cells, transiently transfected, purified (anti-Flag M2 resin, Superose 6 SEC) in LMNG/CHS; not shown: FLAG, N-terminal, kept
binding: no binding

Reference: PMC10307625, “Inhibiting membrane rupture with NINJ1 antibodies limits tissue injury” (Nature, 2023)
